According to patent CN111333732A:
These are yes or no findings as the source states them, for the method shown. Some results given as binding are weak or reduced against the parent protein; the word gives no strength. Sequences can lack the tags named with a protein.

Sequences of proteins named here, by UniProt entry; tags and fusion partners are left off. Residues count along the entry.
UniProt P26718, residues 78-216: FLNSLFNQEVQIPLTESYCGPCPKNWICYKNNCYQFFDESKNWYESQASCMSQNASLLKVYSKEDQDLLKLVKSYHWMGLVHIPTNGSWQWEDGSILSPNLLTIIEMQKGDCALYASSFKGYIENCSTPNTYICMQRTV
UniProt Q02223, residues 1-54: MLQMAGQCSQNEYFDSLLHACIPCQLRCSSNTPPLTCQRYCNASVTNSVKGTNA

Columns and labels:
NKG2D-Fc蛋白 = NKG2D-Fc蛋白 (UniProt P26718); assay: SPR, simultaneous binding (Fig. 3E)
BCMA蛋白 (coated in ELISA) = BCMA蛋白 (coated in ELISA) (UniProt Q02223); assay: competitive ELISA on coated BCMA, competitor JZDE00

B1: 双特异性抗体2A9-MICA (anti-human BCMA scFv 2A9 fused to human MICA extracellular regions 1-3) (bispecific antibody)
chain: MAEVQLQQSGAELVKPGASVKLSCTASGFNIKDTYMHWVKQRPEQGLEWIGRIDPANGNTKYDPKFQGKATITADTSSNTAYLQLSSLTSEDTAVYYCARWVYWGQGTTLTVSTGGGGSDVVMTQSPSSMYASLGERVTITCKASQDINSYLSWFQQKPGKSPKTLIYRANRLVDGVPSRFSGSGSGQDYSLTISSLEYEDMGIYYCLQYDEFPYTFGGGTKLEIKRGSGGGGSEPHSLRYNLTVLSWDGSVQSGFLAEVHLDGQPFLRYDRQKCRAKPQGQWAEDVLGNKTWDRETRDLTGNGKDLRMTLAHIKDQKEGLHSLQEIRVCEIHEDNSTRSSQHFYYDGELFLSQNLETEEWTVPQSSRAQTLAMNVRNFLKEDAMKTKTHYHAMHADCLQELRRYLESGVVLRRTVPPMVNVTRSEASEGNITVTCRASSFYPRNIILTWRQDGVSLSHDTQQWGDVLPDGNGTYQTWVATRICRGEEQRFTCYMEHSGNHSTHPVPSGKVLVLQSHW
In the case of B1, the binding (NKG2D-Fc蛋白) is reported as “binds” and the binding (BCMA蛋白 (coated in ELISA)) is reported as “binds”.
